# Source: the supplement of paper PMC8728848
# This is one part of the list.
# B1: RetS (Pseudomonas aeruginosa), Q9HUV7 (protein)
# chain: MVRLRIAIGLLVSFLLLLLGPMSPAVADDAGVSSVPLQTTATTPSANQNWRLLRDESAQLRIADVLQRKEQFRPLAKRSFIFPASPQAVWLQVQLPAQKVPSWLWIFAPRVQYLDYYLVQDGQLVRDQHTGESRPFQERPLPSRSYLFSLPVDGKPMTLYVRMTSNHPLMAWFDQIDEAGLVGLEKPAYAFGMLLGGMLLLLMYNLIRFAYSRSASSLWLAAVHAALAVCAAANLGLVAFWLPGLKFNQSLTADLGALGAAVSLLWFACSFFRGTAESRLNRLLQGEALLILAVGAIIAFTQQLWFSWLIYLLVILSSLSVPLIAAWHWYRGYQPARLIVAGMIVFNAGFMVFLPVLFGTKQLDPGWLVLGVFSFATLAGLVLSVSLTERQRLIQQLNLQQRTSEAAHTAELQTKAEFLAKISHEIRTPMNGVLGMTELLLGTPLSAKQRDYVQTIHSAGNELLTLINEILDISKLESGQIELDEVQFDLNALIEDCLDIFRVKAEQQRIELISFTQPQVPRVIGGDPTRLRQVVLSLLDNAFKQTEEGEILLVVALDDQGETPRLRIAVQDSGHPFDAKEREALLTAELHSGDFLSASKLGSHLGLIIARQLVRLMGGEFGIQSGSSQGTTLSLTLPLDPQQLENPTADLDGPLQGARLLVVDDNETCRKVLVQQCSGWGLNVSAVSSGKEALAQLRTKAHLREYFDVVLLDQDMPGMTGMQLAAKIKEDPNLNHDILLIMLTGISNAPSKIIARNAGIKRILAKPVAGYTLKATLADELAQRGVSGVTNYLQPAKEAQAPSLPSDFRILVAEDNSISTKVIRGMLNKLNLQPDTASNGQEALSAMKATQYDLVLMDCEMPVLDGFSATEQLRAWEAHEQRPHTPVVALTAHILSEHKERARLVGMDGHMAKPVELSQLRELIAYWVGERDRRRQGDALPS
# Legend:
# Experiment in all cases: glycan array binding signal (z-score within array); higher = stronger binding
# Conditions in all cases: glycan notation: IUPAC condensed, linker removed
# [1] = biological target: Gal(a1-3)Gal
# In short: (§1)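 The Consortium for Functional Glycomics database supplied 3228 glycan arrays, of which those lacking an available protein sequence were dropped. The binding signal, a within-array Z-score, was averaged across arrays of the same protein sequence and across linkers. Negative scores can be read as non-binding.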
# [2] = biological target: Gal(a1-3)Gal(b1-3)GlcNAc
# In short: as §1
# [3] = biological target: Gal(a1-3)Gal(b1-3)GlcNAc(b1-2)Man(a1-3)[Gal(a1-3)Gal(b1-3)GlcNAc(b1-2)Man(a1-6)]Man(b1-4)GlcNAc(b1-4)GlcNAc
# In short: as §1
# [4] = biological target: Gal(a1-3)Gal(b1-3)GlcNAc(b1-3)GalNAc
# In short: as §1
# [5] = biological target: Gal(a1-3)Gal(b1-3)[Fuc(a1-4)]GlcNAc(b1-2)Man(a1-3)[Gal(a1-3)Gal(b1-3)[Fuc(a1-4)]GlcNAc(b1-2)Man(a1-6)]Man(b1-4)GlcNAc(b1-4)GlcNAc
# In short: as §1
# [6] = biological target: Gal(a1-3)Gal(b1-4)Glc
# In short: as §1
# [7] = biological target: Gal(a1-3)Gal(b1-4)GlcNAc
# In short: as §1
# [8] = biological target: Gal(a1-3)Gal(b1-4)GlcNAc(b1-3)GalNAc
# In short: as §1
# [9] = biological target: Gal(a1-3)Gal(b1-4)[Fuc(a1-3)]GlcNAc
# In short: as §1
# [10] = biological target: Gal(a1-3)Gal(b1-4)[Fuc(a1-3)]GlcNAc(b1-2)Man(a1-3)[Gal(a1-3)Gal(b1-4)[Fuc(a1-3)]GlcNAc(b1-2)Man(a1-6)]Man(b1-4)GlcNAc(b1-4)GlcNAc
# In short: as §1
# [11] = biological target: Gal(a1-3)GalNAc
# In short: as §1
# [12] = biological target: Gal(a1-3)[Gal(a1-4)]Gal(b1-4)GlcNAc
# In short: as §1
# [13] = biological target: Gal(a1-4)Gal(b1-3)GlcNAc(b1-2)Man(a1-3)[Gal(a1-4)Gal(b1-3)GlcNAc(b1-2)Man(a1-6)]Man(b1-4)GlcNAc(b1-4)GlcNAc
# In short: as §1
# [14] = biological target: Gal(a1-4)Gal(b1-4)Glc
# In short: as §1
# [15] = biological target: Gal(a1-4)Gal(b1-4)GlcNAc
# In short: as §1
# [16] = biological target: Gal(a1-4)Gal(b1-4)GlcNAc(b1-2)Man(a1-3)[Gal(a1-4)Gal(b1-4)GlcNAc(b1-2)Man(a1-6)]Man(b1-4)GlcNAc(b1-4)GlcNAc
# In short: as §1
# [17] = biological target: Gal(a1-4)Gal(b1-4)GlcNAc(b1-3)Gal(b1-4)Glc
# In short: as §1
# [18] = biological target: Gal(a1-4)GlcNAc
# In short: as §1
# [19] = biological target: Gal(a1-6)Glc
# In short: as §1
# [20] = biological target: Gal(b1-2)Gal
# In short: as §1
# [21] = biological target: Gal(b1-3)Gal
# In short: as §1
# [22] = biological target: Gal(b1-3)Gal(b1-4)GlcNAc
# In short: as §1
# [23] = biological target: Gal(b1-3)Gal(b1-4)GlcNAc(b1-2)Man(a1-3)[Gal(b1-3)Gal(b1-4)GlcNAc(b1-2)Man(a1-6)]Man(b1-4)GlcNAc(b1-4)GlcNAc
# In short: as §1
# [24] = biological target: Gal(b1-3)GalNAc
# In short: as §1
# [25] = biological target: Gal(b1-3)GalNAc(a1-3)[Fuc(a1-2)]Gal(b1-4)Glc
# In short: as §1
# [26] = biological target: Gal(b1-3)GalNAc(a1-3)[Fuc(a1-2)]Gal(b1-4)GlcNAc
# In short: as §1
# [27] = biological target: Gal(b1-3)GalNAc(b1-3)Gal(a1-4)Gal(b1-4)Glc
# In short: as §1
# [28] = biological target: Gal(b1-3)GalNAc(b1-4)Gal(b1-4)Glc
# In short: as §1
# [29] = biological target: Gal(b1-3)GalNAc(b1-4)[Neu5Ac(a2-3)]Gal(b1-4)Glc
# In short: as §1
# [30] = biological target: Gal(b1-3)GlcNAc
# In short: as §1
binder,measurement,setting,value
B1,glycan array binding signal (z-score),[1],0.099
same,glycan array binding signal (z-score),[2],-1.37
same,glycan array binding signal (z-score),[3],0.69
same,glycan array binding signal (z-score),[4],-1.04
same,glycan array binding signal (z-score),[5],-1.42
same,glycan array binding signal (z-score),[6],0.203
same,glycan array binding signal (z-score),[7],-1.17
same,glycan array binding signal (z-score),[8],0.122
same,glycan array binding signal (z-score),[9],-1.19
same,glycan array binding signal (z-score),[10],1.1
same,glycan array binding signal (z-score),[11],-0.525
same,glycan array binding signal (z-score),[12],-0.109
same,glycan array binding signal (z-score),[13],5.23
same,glycan array binding signal (z-score),[14],-0.16
same,glycan array binding signal (z-score),[15],0.243
same,glycan array binding signal (z-score),[16],3.05
same,glycan array binding signal (z-score),[17],0.906
same,glycan array binding signal (z-score),[18],-0.886
same,glycan array binding signal (z-score),[19],-1.18
same,glycan array binding signal (z-score),[20],-1.33
same,glycan array binding signal (z-score),[21],-0.206
same,glycan array binding signal (z-score),[22],-1.56
same,glycan array binding signal (z-score),[23],-0.964
same,glycan array binding signal (z-score),[24],0.357
same,glycan array binding signal (z-score),[25],-0.01
same,glycan array binding signal (z-score),[26],-0.856
same,glycan array binding signal (z-score),[27],0.976
same,glycan array binding signal (z-score),[28],-0.081
same,glycan array binding signal (z-score),[29],1.86
same,glycan array binding signal (z-score),[30],0.373

# Reformatted bar-delimited: entries from further up
binder | measurement | setting | value
B1 | glycan array binding signal (z-score) | [19] | -1.18
same | glycan array binding signal (z-score) | [20] | -1.33
